According to doi:10.1101/2024.03.10.583603:
Results are given in words; binding and its absence hold for the method and conditions named.

Amino acid sequences for entries named in this document (tags omitted). A change or cut given only in a name is not applied to a line headed by its entry.
UniProt P62837: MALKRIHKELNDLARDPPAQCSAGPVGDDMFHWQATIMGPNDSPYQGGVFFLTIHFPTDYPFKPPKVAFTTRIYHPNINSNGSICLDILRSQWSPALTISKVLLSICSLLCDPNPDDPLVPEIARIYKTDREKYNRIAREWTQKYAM

Molecular target: Ube2d2^S22R (UniProt P62837)
Test: AUC

- binding: no binding (tested: 15 µM)
Substance: Ube2d2^S22R (from UniProt P62837 1-147) (enzyme)
